This is an account of results in publication PMC5377454.

Amino acid sequences for entries named in this document (tags omitted). Residues count along the entry.
UniProt Q08345, residues 19-913: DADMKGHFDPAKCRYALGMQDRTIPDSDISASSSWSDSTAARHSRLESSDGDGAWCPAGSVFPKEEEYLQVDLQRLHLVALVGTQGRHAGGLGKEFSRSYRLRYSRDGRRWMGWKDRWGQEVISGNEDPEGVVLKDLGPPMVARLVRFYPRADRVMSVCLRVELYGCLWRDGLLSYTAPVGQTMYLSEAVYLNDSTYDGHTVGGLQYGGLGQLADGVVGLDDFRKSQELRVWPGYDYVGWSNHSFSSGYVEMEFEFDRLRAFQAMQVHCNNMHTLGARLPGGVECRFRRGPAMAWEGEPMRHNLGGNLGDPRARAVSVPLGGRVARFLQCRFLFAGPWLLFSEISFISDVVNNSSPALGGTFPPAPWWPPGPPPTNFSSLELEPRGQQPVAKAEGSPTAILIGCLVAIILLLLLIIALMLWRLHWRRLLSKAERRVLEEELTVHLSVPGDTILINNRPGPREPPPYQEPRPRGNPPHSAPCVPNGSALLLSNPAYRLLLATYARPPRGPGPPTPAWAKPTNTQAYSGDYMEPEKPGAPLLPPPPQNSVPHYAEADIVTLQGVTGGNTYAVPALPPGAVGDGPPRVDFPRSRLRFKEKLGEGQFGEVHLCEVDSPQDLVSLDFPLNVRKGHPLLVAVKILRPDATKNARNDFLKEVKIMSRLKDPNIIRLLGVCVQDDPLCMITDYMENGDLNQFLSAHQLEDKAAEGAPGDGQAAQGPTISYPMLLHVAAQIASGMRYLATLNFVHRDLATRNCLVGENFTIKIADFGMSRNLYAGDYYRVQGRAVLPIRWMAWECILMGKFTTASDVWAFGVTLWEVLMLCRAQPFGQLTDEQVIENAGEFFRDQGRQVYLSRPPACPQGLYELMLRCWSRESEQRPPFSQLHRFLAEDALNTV

Results are given in words; binding and its absence hold for the method and conditions named. In cells and extracts the contact can be indirect. Some entries that bind do so weakly or less than the wild type.

The target in this assay is T1, Transmembrane 4 L six family member 1 (TM4SF1) (human (endogenous in PANC-1 and AsPC-1)) (UniProt P30408).
T1 sequence: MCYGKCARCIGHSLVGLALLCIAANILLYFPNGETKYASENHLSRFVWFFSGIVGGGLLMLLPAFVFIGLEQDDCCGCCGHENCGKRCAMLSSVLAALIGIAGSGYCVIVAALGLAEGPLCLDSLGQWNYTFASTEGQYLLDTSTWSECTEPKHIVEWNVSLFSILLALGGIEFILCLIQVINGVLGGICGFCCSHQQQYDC
Briefly: co-IP; PANC-1 and AsPC-1 cells lysed in IP lysis buffer; lysates incubated with antibodies overnight at 4 C; Protein A/G PLUS Agarose beads 10 h at 4 C; washed three times with lysis buffer; western blot. (In general: In western blotting, separated proteins are transferred to a membrane and probed.)

In the case of “Discoidin Domain Receptor 1 (DDR1) (from UniProt Q08345 19-913)”, the binding entry was “binds”.
